From patent publication EP2050458A1, “IL24 for inducing hyperproliferative or autoimmune cell death” (INSTITUT NATIONAL DE LA SANTE ET DE LA RECHERCHE MEDICALE …, priority 2007, dated 2009)
No constants are given. Whether binding was seen depends on the method and setting. Binding seen in cells or lysates may run through a third protein. Some binding calls cover weakened binding; strength is not graded here.

Chains of the proteins cited; added tags and fusions are not shown.
UniProt P29350: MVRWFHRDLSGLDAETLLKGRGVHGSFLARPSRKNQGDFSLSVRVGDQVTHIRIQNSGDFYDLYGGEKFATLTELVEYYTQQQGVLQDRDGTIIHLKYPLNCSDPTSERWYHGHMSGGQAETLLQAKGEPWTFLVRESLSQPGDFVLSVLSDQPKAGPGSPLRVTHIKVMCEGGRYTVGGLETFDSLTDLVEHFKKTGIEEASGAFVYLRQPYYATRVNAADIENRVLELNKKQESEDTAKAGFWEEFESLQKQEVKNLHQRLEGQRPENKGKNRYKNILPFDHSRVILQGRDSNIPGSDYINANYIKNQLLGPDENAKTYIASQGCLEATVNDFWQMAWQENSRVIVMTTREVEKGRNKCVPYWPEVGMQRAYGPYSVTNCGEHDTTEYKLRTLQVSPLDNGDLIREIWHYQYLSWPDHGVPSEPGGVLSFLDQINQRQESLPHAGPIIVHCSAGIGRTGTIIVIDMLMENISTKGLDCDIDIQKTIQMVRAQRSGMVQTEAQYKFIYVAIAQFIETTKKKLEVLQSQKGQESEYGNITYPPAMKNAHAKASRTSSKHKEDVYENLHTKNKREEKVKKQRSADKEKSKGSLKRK

Columns and labels:
[1] = biological target: T1, IL24 receptor (IL20 R-a + IL20 R-b chains) (human) (UniProt Q9UHF4+Q6UXL0); experiment: co-immunoprecipitation from CLL cell lysates, Western blot (restated in the discussion)
T1 sequence (looked up) 1: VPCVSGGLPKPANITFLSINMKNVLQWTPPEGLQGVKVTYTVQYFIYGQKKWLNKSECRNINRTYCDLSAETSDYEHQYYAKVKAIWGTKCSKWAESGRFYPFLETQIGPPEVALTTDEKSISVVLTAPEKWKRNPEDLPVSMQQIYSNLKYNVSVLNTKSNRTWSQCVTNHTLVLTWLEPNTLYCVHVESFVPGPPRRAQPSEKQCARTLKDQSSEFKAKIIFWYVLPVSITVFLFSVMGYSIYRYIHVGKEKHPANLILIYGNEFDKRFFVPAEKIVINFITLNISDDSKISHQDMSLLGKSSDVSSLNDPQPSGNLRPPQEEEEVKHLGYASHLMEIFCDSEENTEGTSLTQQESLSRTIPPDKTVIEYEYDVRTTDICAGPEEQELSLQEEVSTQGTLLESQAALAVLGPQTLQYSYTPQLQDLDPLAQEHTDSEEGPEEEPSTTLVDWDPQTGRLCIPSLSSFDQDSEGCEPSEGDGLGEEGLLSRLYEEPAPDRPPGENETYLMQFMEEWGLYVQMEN
T1 sequence (looked up) 2: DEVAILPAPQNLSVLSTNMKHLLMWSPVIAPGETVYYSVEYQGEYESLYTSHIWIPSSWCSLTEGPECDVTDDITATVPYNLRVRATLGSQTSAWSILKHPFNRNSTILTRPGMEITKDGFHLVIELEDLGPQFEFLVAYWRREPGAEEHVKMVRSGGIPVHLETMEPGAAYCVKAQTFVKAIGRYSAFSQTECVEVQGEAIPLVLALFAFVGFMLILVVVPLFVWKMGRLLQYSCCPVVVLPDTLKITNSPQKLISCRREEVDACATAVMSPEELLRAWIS

[2] = biological target: T1, IL24 receptor (IL20 R-a + IL20 R-b chains) (human); experiment: co-immunoprecipitation from CLL cell lysates with anti-IL20 R-a + anti-IL20 R-b antibodies, Western blot with anti-SHP-1

SHP-1 (src homology-2 containing tyrosine phosphatase 1) (from UniProt P29350 1-595) (enzyme)
binding [1]: binds | binding [2]: binds
